Assay results as given in article PMC7513858.
Results are given in words; binding and its absence hold for the method and conditions named. In cells and extracts the contact can be indirect. Some entries that bind do so weakly or less than the wild type. Each block holds one molecule with its values, some of them ahead of it.

The chains behind the UniProt entries cited, without tags or fusion partners. Residues count along the entry.
UniProt P53712, residues 21-798: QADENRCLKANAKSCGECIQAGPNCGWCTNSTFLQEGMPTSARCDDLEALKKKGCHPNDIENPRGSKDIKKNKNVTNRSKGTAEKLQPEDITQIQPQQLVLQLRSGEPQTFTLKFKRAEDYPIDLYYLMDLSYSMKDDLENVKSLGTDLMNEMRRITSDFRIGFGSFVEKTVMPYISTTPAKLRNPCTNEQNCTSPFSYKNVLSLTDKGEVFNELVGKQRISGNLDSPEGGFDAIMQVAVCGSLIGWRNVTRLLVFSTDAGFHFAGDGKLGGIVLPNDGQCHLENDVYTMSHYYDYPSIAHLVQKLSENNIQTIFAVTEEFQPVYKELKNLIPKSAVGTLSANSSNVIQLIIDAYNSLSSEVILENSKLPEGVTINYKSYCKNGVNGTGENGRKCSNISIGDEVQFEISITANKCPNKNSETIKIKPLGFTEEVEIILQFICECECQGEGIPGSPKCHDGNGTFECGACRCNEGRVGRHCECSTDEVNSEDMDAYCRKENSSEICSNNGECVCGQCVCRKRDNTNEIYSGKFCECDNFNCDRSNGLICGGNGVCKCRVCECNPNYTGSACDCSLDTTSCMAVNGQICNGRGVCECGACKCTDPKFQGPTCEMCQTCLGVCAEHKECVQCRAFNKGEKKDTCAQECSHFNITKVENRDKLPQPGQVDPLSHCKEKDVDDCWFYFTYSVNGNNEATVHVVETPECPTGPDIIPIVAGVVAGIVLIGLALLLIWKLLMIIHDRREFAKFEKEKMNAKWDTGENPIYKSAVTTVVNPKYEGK

Legend:
[1] = target: T1, Fibronectin type III domain-containing 4 (bovine (endogenous in bovine MDSCs; species of the cloned cDNA not stated)) (UniProt A6QPL2); assay: co-IP; lysate (RIPA) of FNDC4-overexpressing, differentiated bovine MDSCs; anti-FNDC4 or anti-ITGβ1 and anti-IgG overnight at 4°C, protein A-agarose; western blot
T1 sequence: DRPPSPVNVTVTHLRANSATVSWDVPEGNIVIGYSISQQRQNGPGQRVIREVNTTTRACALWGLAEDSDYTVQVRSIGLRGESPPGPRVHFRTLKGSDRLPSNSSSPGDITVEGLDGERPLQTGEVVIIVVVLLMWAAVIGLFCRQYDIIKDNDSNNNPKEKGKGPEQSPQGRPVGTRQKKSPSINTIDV

[2] = target: integrin β1 (bovine (endogenous in bovine MDSCs)) (UniProt P53712); assay: as above

binding [1]: binds
Molecule: integrin β1 (from UniProt P53712 21-798) (receptor)

binding [2]: binds
B1: Fibronectin type III domain-containing 4 (protein, UniProt A6QPL2 41-230)
chain: T1 sequence
